Source: PubChem BioAssay AID686938 (Drosophila RNAi Screening Center, 2013)
Assay: 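Fly genes required for calcium entry once internal stores are emptied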 (primary screen). System: Drosophila S2R+ cells. Reagent: long dsRNA against Drosophila genes, about 0.25 µg dsRNA per well, roughly 10,000 cells. Time to read-out: 5 days of knock-down before the calcium assay. Challenge: thapsigargin (SERCA pump blocker) to empty calcium stores; entry signal taken 4 min after adding it. Measured: 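Duplicate raw fluo-4 intensities per well from a plate reader, at rest and four minutes after thapsigargin emptied calcium stores; entry-to-rest ratio filled for only some wells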. Reading the numbers: calcium entry signal: higher = stronger calcium signal after store depletion; entry to resting ratio: higher = more calcium entry relative to resting level; resting calcium signal: higher = higher resting calcium signal. Units: calcium entry signal in fluorescence units; resting calcium signal in fluorescence units. Call rule: 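Hit if the duplicate-averaged plate z-score for entry over resting signal is under −3; wells with weak total dye signal (Fmax z < −2) or more than 5 off-targets removed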. Calls: active = strongly reduced calcium entry; inactive = no strong reduction.
The screen tested about 23,000 reagents; below is an unselected part of those with a known target gene and a result. In the full data, 75 (0.33%) got an active call. 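Raw plate signals without normalisation; calls rest on plate z-scores that were not deposited; ratio present for only 364 wells.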 The numbers tell different reagents against one gene apart. Not stated in the record: the dose of the treatment.

After knock-down of ubl (ubiquitin like), the record shows calcium entry signal, replicate 1 = 2.43e7; calcium entry signal, replicate 2 = 2.68e7; resting calcium signal, replicate 1 = 1.27e7; resting calcium signal, replicate 2 = 1.18e7; inactive.
With knock-down of RpL40 (Ribosomal protein L40), the record shows calcium entry signal, replicate 1 = 1.82e7; calcium entry signal, replicate 2 = 1.63e7; resting calcium signal, replicate 1 = 1.12e7; resting calcium signal, replicate 2 = 1.06e7; active.
mRpL39 (mitochondrial ribosomal protein L39) gave calcium entry signal, replicate 1 = 4.62e7; calcium entry signal, replicate 2 = 5.33e7; resting calcium signal, replicate 1 = 1.96e7; resting calcium signal, replicate 2 = 1.90e7; inactive.
CG32650 scored calcium entry signal, replicate 1 = 4.23e7; calcium entry signal, replicate 2 = 4.54e7; resting calcium signal, replicate 1 = 1.94e7; resting calcium signal, replicate 2 = 2.02e7; inactive.
Depletion of CG10809 gave: calcium entry signal, replicate 1 = 2.61e7; calcium entry signal, replicate 2 = 4.65e7; resting calcium signal, replicate 1 = 1.41e7; resting calcium signal, replicate 2 = 1.96e7; inactive.
rdhB (retinol dehydrogenase B) gave calcium entry signal, replicate 1 = 2.91e7; calcium entry signal, replicate 2 = 2.97e7; resting calcium signal, replicate 1 = 1.33e7; resting calcium signal, replicate 2 = 1.30e7; inactive.
CG6951 showed calcium entry signal, replicate 1 = 1.85e7; calcium entry signal, replicate 2 = 3.26e7; resting calcium signal, replicate 1 = 1.03e7; resting calcium signal, replicate 2 = 1.65e7; inactive.
With knock-down of scaf6 (SR-related CTD associated factor 6) #1, the record shows calcium entry signal, replicate 1 = 3.24e7; calcium entry signal, replicate 2 = 4.38e7; resting calcium signal, replicate 1 = 1.47e7; resting calcium signal, replicate 2 = 2.77e7; inactive.
Against scaf6 (SR-related CTD associated factor 6) #2, the entry reads calcium entry signal, replicate 1 = 3.17e7; calcium entry signal, replicate 2 = 5.43e7; resting calcium signal, replicate 1 = 1.68e7; resting calcium signal, replicate 2 = 2.19e7; inactive.
Depletion of scaf6 (SR-related CTD associated factor 6) #3 gave: calcium entry signal, replicate 1 = 4.42e7; calcium entry signal, replicate 2 = 6.45e7; resting calcium signal, replicate 1 = 2.09e7; resting calcium signal, replicate 2 = 2.62e7; inactive.
After knock-down of atl (atlastin) the results were calcium entry signal, replicate 1 = 4.32e7; calcium entry signal, replicate 2 = 3.60e7; resting calcium signal, replicate 1 = 1.92e7; resting calcium signal, replicate 2 = 1.69e7; inactive.
For CG7080, the values are calcium entry signal, replicate 1 = 2.93e7; calcium entry signal, replicate 2 = 3.27e7; resting calcium signal, replicate 1 = 1.37e7; resting calcium signal, replicate 2 = 1.49e7; inactive.
Depletion of Ir92a (Ionotropic receptor 92a) resulted in: calcium entry signal, replicate 1 = 3.21e7; calcium entry signal, replicate 2 = 4.80e7; resting calcium signal, replicate 1 = 5.43e7; resting calcium signal, replicate 2 = 2.34e7; inactive.
After knock-down of Tmtc2 (Transmembrane O-mannosyltransferase targeting cadherins 2), the record shows calcium entry signal, replicate 1 = 4.87e7; resting calcium signal, replicate 1 = 2.81e7; inactive.
For Lint-1 (l(3)mbt interacting protein 1), the entry reads calcium entry signal, replicate 1 = 3.20e7; calcium entry signal, replicate 2 = 3.95e7; resting calcium signal, replicate 1 = 1.45e7; resting calcium signal, replicate 2 = 1.65e7; inactive.
With knock-down of Ptp61F (Protein tyrosine phosphatase 61F) the results were calcium entry signal, replicate 1 = 3.74e7; calcium entry signal, replicate 2 = 5.48e7; resting calcium signal, replicate 1 = 2.09e7; resting calcium signal, replicate 2 = 2.79e7; inactive.
For Nuf2, the values are calcium entry signal, replicate 1 = 3.63e7; resting calcium signal, replicate 1 = 1.97e7; inactive.
Knock-down of CG12343 resulted in: calcium entry signal, replicate 1 = 3.23e7; calcium entry signal, replicate 2 = 3.45e7; resting calcium signal, replicate 1 = 1.49e7; resting calcium signal, replicate 2 = 1.64e7; inactive.
For CG11360 #1, the values are calcium entry signal, replicate 1 = 4.19e7; calcium entry signal, replicate 2 = 4.15e7; resting calcium signal, replicate 1 = 1.92e7; resting calcium signal, replicate 2 = 1.66e7; inactive.
Against CG11360 #2 the deposit lists calcium entry signal, replicate 1 = 4.31e7; calcium entry signal, replicate 2 = 5.83e7; entry to resting ratio 2; resting calcium signal, replicate 1 = 2.18e7; resting calcium signal, replicate 2 = 2.44e7; inactive.
For Prosalpha6 (Proteasome alpha6 subunit), the values are calcium entry signal, replicate 1 = 1.88e7; calcium entry signal, replicate 2 = 2.15e7; resting calcium signal, replicate 1 = 1.43e7; resting calcium signal, replicate 2 = 1.35e7; inactive.
